Assay results from PubChem BioAssay AID2685 (National Center for Advancing Translational Sciences (NCATS), 2010).
The list shows a part of the results. Further columns of the screen follow, without active or inactive calls. Compounds called inactive in the main read-out are mostly missing here. Potencies come from curve fits of mixed quality, noted in brackets.

Assay: qHTS Assay for Lipid Storage Modulators in Drosophila S3 Cells;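 for cell number change: cells counted by Cell Tracker Red CMTPX staining in the red channel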
Settings: BODIPY lipid droplet fluorescence, 18-24 h; for cell number change: measured here: cell count max response, cells fed with added oleic acid
Method in brief: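 Laser-scanning cytometry quantifies lipid droplet accumulation (500–530 nm total intensity; droplet/cell object ratio) in oleic acid-fed (400 uM added) Drosophila S3 cells treated with a concentration series. 20 uM Triacsin C defined 100% inhibition.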

[1] = measured here: cell number channel AC50, cells fed with added oleic acid
[2] = measured here: lipid fluorescence (Fed channel) AC50, cells fed with added oleic acid

COc1ccc(C2=NOC(C(=O)Nc3cccc(O)c3)C2)cc1 (stereo unspecified)
cell number change: -31.5%
AC50 [1]: 16.4 µM [falling, single point]

CCOC(=O)N1CCN(Cc2cc(=O)oc3ccc(Cl)cc23)CC1
AC50 [1]: 6.51 µM [rising, single point]

COC(=O)C1=C(Nc2ccccc2NC(=O)c2ccccc2C(=O)O)CSC1
AC50 [1]: 0.146 µM [rising, full curve]

O=C(c1cc2c(=O)n3ccccc3nc2s1)N1CCN(c2cccc(Cl)c2)CC1
cell number change: -15.8%

O=C(Cn1c(-c2cscn2)nc2ccccc21)Nc1cc(F)ccc1F
cell number change: -5.94%
AC50 [1]: 4.61 µM [rising, partial curve, poor fit]
AC50 [2]: 4.61 µM [rising, partial curve]

Cc1[nH]c2ccccc2c1/C=C(\C#N)S(=O)(=O)c1ccccc1
AC50 [1]: 0.82 µM [rising, full curve]

Cc1c(C(=O)OCCOC(C)C)[nH]c2c1C(=O)CC(C)(C)C2
AC50 [1]: 4.61 µM [rising, single point]
AC50 [2]: 3.66 µM [rising, partial curve]

O=C(Nc1ccccc1)Oc1cccc(Br)c1
cell number change: -15.7%

CC(=O)C1=C(O)C=C(c2ccco2)CC1c1ccco1 (stereo unspecified)
cell number change: -13.1%
AC50 [2]: 0.116 µM [falling, full curve, poor fit]

COCC(=O)N1CCCC(C(=O)c2ccc(C(F)(F)F)cc2)C1 (stereo unspecified)
cell number change: 2.37%
AC50 [1]: 0.731 µM [rising, single point]
AC50 [2]: 6.51 µM [rising, single point]

O=c1c2ccccc2nnn1Cc1ccc(F)cc1
cell number change: 56.5%
AC50 [1]: 10.3 µM [rising, partial curve, poor fit]

O=S(=O)(c1ccccc1)N1CCN(Cc2ccccc2)CC1
cell number change: 12.6%
AC50 [2]: 29.1 µM [rising, single point]

CCN(CC)CCCN1C(=O)c2oc3ccccc3c(=O)c2C1c1cccnc1 (stereo unspecified)
cell number change: -0.847%
AC50 [2]: 0.651 µM [falling, single point]

Cc1cc(C(=O)N2CCCCCC2)cs1
cell number change: -35.6%
AC50 [1]: 25.9 µM [falling, single point]
AC50 [2]: 16.4 µM [falling, single point]

Cc1ccc(CN(C(=O)c2csnn2)C(C(=O)NC2CCCC2)c2ccccn2)cc1 (stereo unspecified)
cell number change: 18.7%
AC50 [2]: 1.46 µM [falling, partial curve]

COc1ccc(OC)c(CN2CCN(C(=O)c3cccc4ccccc34)CC2)c1
cell number change: 13.8%
AC50 [2]: 0.13 µM [rising, full curve, poor fit]

COC(=O)c1nc(C(=O)OC)c(C(=O)OC)nc1C(=O)OC
cell number change: -20.6%
